Test results taken from article PMC10241914.
Results are given in words; binding and its absence hold for the method and conditions named. In cells and extracts the contact can be indirect. Here binding means that the protein was enriched with, or labelled near, the bait; the list need not be complete.

The chains behind the UniProt entries cited, without tags or fusion partners. Residues count along the entry.
UniProt P38646, residues 47-679: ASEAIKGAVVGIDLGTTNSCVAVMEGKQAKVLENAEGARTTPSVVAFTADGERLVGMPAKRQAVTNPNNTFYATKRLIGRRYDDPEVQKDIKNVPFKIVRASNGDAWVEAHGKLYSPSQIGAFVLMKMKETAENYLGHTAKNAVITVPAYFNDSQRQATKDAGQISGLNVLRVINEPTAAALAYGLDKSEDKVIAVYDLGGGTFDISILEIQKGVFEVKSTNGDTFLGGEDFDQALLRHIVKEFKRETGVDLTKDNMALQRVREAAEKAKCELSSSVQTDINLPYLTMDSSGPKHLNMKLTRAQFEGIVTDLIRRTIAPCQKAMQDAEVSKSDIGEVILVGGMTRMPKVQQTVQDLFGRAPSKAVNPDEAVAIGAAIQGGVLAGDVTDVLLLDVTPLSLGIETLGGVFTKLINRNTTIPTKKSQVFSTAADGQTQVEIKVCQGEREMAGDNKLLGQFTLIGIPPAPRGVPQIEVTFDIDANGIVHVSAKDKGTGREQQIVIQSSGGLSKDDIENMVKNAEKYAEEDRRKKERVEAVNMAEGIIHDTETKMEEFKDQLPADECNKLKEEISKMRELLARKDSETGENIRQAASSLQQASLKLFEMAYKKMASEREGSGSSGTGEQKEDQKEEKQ
UniProt P11021, residues 19-654: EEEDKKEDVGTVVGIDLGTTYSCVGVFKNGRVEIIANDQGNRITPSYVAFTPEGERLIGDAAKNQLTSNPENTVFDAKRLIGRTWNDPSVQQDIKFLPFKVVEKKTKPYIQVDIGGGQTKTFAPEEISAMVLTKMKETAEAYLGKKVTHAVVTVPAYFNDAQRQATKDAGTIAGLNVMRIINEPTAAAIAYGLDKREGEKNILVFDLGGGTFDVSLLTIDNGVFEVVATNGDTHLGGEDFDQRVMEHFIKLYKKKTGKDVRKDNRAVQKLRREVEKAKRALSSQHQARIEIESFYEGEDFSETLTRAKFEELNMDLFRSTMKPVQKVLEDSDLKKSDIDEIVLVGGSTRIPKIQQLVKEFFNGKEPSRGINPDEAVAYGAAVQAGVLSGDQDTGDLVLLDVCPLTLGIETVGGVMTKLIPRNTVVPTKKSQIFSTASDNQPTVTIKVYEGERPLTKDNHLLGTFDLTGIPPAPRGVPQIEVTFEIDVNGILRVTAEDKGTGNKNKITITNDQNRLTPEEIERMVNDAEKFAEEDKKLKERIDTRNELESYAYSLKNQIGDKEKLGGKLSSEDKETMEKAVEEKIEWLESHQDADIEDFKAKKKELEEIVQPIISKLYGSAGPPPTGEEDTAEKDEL
UniProt P08238: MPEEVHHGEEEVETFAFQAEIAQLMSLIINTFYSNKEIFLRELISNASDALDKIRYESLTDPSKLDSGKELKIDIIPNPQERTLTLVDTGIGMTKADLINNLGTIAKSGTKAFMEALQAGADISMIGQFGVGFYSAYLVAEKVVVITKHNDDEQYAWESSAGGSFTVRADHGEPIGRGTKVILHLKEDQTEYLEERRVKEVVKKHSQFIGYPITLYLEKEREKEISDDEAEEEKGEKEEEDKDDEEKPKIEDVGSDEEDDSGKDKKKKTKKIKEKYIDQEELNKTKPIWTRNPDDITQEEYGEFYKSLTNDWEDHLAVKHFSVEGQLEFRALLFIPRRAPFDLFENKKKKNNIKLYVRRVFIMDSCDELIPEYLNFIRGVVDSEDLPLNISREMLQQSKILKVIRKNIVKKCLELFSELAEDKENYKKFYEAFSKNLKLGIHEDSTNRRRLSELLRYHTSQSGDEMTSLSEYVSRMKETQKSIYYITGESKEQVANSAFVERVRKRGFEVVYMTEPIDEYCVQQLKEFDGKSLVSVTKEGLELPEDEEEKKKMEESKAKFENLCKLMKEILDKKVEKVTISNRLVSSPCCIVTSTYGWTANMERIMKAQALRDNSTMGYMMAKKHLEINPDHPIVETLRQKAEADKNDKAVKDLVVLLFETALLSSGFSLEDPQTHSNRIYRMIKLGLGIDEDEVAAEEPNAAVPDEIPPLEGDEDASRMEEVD
UniProt P11142: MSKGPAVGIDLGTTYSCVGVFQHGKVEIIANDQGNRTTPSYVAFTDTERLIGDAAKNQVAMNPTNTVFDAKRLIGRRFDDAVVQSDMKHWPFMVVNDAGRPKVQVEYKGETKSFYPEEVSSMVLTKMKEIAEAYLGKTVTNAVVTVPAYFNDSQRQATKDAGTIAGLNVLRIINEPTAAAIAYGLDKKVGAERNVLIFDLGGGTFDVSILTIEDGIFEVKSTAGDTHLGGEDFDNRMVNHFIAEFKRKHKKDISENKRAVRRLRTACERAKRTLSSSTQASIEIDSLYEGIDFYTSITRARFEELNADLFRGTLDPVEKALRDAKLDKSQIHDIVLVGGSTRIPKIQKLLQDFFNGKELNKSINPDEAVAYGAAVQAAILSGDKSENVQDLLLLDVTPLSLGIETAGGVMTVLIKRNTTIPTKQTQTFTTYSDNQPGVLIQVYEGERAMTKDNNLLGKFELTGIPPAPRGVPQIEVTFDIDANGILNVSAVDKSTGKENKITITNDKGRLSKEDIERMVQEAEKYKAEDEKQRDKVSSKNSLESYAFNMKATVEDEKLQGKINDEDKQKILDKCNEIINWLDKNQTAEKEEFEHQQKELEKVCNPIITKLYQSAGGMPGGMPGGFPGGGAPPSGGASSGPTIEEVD

Molecular target: T1, C11orf54 (bait of the Co-IP/MS assay) (human) (UniProt Q9H0W9)
T1 sequence: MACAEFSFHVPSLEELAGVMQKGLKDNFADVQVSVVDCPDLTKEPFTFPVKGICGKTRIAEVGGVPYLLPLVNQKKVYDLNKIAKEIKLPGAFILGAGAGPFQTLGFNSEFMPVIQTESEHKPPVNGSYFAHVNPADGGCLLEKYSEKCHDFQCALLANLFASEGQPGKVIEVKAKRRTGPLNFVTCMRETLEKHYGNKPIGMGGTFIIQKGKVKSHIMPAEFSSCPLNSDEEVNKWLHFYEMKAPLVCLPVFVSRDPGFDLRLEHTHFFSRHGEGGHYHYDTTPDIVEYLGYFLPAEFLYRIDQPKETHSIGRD
Experiment: affinity purification with mass spectrometry; co-immunoprecipitation/mass spectrometry (Co-IP/MS) of C11orf54; cells and antibody not told in the text shown

binding, binds:
HSPA9 (from UniProt P38646 47-679)
HSPA5 (from UniProt P11021 19-654)
HSP90AA1 (from UniProt P07900 1-732)
HSP90AB1 (from UniProt P08238 1-724)
HSPA8 (from UniProt P11142 1-646)
